US20180244796A1 (CARSGEN THERAPEUTICS, published 2018)
No constants are given. Whether binding was seen depends on the method and setting. Some binding calls cover weakened binding; strength is not graded here.

Amino acid sequences for entries named in this document (tags omitted). A change or cut given only in a name is not applied to a line headed by its entry.
UniProt Q13421: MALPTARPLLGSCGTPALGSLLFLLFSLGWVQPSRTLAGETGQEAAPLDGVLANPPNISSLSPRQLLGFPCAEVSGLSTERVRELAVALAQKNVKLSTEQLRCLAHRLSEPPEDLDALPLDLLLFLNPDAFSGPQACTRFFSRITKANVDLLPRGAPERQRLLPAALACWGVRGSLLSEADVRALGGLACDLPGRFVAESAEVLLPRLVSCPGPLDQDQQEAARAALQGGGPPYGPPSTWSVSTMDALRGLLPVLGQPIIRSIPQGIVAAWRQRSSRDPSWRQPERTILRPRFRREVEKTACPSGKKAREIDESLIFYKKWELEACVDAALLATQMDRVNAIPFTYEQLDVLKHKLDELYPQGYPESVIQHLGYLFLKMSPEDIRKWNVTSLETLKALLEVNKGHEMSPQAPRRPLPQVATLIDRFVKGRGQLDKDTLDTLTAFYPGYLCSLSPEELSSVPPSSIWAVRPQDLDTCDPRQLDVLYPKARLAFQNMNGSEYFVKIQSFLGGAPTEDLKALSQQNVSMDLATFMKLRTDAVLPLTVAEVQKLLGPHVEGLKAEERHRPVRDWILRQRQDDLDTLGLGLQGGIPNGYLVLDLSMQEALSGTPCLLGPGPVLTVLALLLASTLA

Tests used:
[1] = target: purified human mesothelin protein (recombinant, 6xHis tag) (human) (UniProt Q13421); assay: single phage ELISA, mesothelin coated at 100 ng/well
[2] = target: purified human mesothelin protein (recombinant, 6xHis tag) (human) (UniProt Q13421); assay: single phage ELISA, 100 ng/well coated antigen, anti-M13 detection
[3] = target: purified human mesothelin protein (recombinant, 6xHis tag) (human) (UniProt Q13421); assay: single-phage ELISA
[4] = target: purified human mesothelin protein (recombinant, 6xHis tag) (human) (UniProt Q13421); assay: SPR (Biacore T200), antibody captured by anti-human IgG (Fc), human mesothelin as analyte at 10, 20, 40, 80, 160 nM

Row | Binder | binding [1] | binding [2] | binding [3] | binding [4]
1 | single chain antibody P1A6E (phage-displayed, single phage ELISA) (scFv, the fusion to the phage coat protein is not described) scFv: QVQLEQSGLGLVKPSQTLSLTCAISGDTVSSDSAAWNWIRQSPSRGLEWLGRTYYRSKWFNDYAVSVKGRITINSDTSKNQFSLQLNSVTPEDTAVYYCARSNSYYYYAMDVWGQGTLVTVSSGGGGSGGGGSGGGGSQAVLTQPSSLSASPGASASLTCTLRSGINVGIYRIYWYQQRPGSPPQILLTYKSDSDKYQGSGVPSRFSGSKDASANAGILLISGLQSEDEADYYCMIWHSGGWVFGGGTKVTVLG | binds | binds | binds | –
2 | single chain antibody P3F2 (phage-displayed, single phage ELISA) (scFv, the fusion to the phage coat protein is not described) scFv: QMQLVQSGAEVKKPGASVKVSCKASGYTFTSYYMHWVRQAPGQGLEWMGIINPSGGSTSYAQKFQGRVTMTRDTSTSTVYMELSSLRSEDTAVYYCASSRSGTTVVNHDAFDIWGKGTTVTVSSGGGGSGGGGSGGGGSDIQLTQSPSSLSASVGDRVTITCRASQVISRALAWYQQTPGKPPKLLIYDASNLQSGVPSRFSGSGSGTDFTLTISRLQPEDFATYYCQQFNSYPLTFGGGTKLEIKR | binds | binds | binds | –
3 | P3F2 monoclonal antibody (antibody, V domains shown, Full antibody: VH in plasmid pIH with human IgG1 CH gene, VL in plasmid pIK with human IgG CL gene; also called monoclonal antibody P3F2) VH: QMQLVQSGAEVKKPGASVKVSCKASGYTFTSYYMHWVRQAPGQGLEWMGIINPSGGSTSYAQKFQGRVTMTRDTSTSTVYMELSSLRSEDTAVYYCASSRSGTTVVNHDAFDIWGKGTTVTVSS VL: DIQLTQSPSSLSASVGDRVTITCRASQVISRALAWYQQTPGKPPKLLIYDASNLQSGVPSRFSGSGSGTDFTLTISRLQPEDFATYYCQQFNSYPLTFGGGTKLEIKR | – | – | – | binds
4 | P1A6E monoclonal antibody (antibody, V domains shown, Full antibody: VH in plasmid pIH with human IgG1 CH gene, VL in plasmid pIK with human IgG CL gene; also called monoclonal antibody P1A6E) VH: QVQLEQSGLGLVKPSQTLSLTCAISGDTVSSDSAAWNWIRQSPSRGLEWLGRTYYRSKWFNDYAVSVKGRITINSDTSKNQFSLQLNSVTPEDTAVYYCARSNSYYYYAMDVWGQGTLVTVSS VL: QAVLTQPSSLSASPGASASLTCTLRSGINVGIYRIYWYQQRPGSPPQILLTYKSDSDKYQGSGVPSRFSGSKDASANAGILLISGLQSEDEADYYCMIWHSGGWVFGGGTKVTVLG | – | – | – | binds
